# Measured values from PubChem BioAssay AID2685 (National Center for Advancing Translational Sciences (NCATS), 2010).
# Some of the results follow. The main result of the screen is listed elsewhere. These columns were measured beside it and carry no call. The list favours compounds with an active or inconclusive main result. Potencies come from curve fits of mixed quality, noted in brackets.
# Assay: qHTS Assay for Lipid Storage Modulators in Drosophila S3 Cells;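 on cell number change: cells counted by Cell Tracker Red CMTPX staining in the red channel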
# Settings: BODIPY lipid droplet fluorescence, 18-24 h; for cell number change: measured here: cell count max response, cells fed with added oleic acid
# Outline: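 Laser-scanning cytometry quantifies lipid droplet accumulation (500–530 nm total intensity; droplet/cell object ratio) in oleic acid-fed (400 uM added) Drosophila S3 cells treated with a concentration series. 20 uM Triacsin C defined 100% inhibition.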
# [1] = measured here: cell number channel AC50, cells fed with added oleic acid
# [2] = measured here: lipid fluorescence (Fed channel) AC50, cells fed with added oleic acid
compound,measurement,setting,value
COc1ccc(/C=C/C(=O)NCc2c(C)nn(C)c2C)cc1COc1ccc(Br)cc1,cell number change,,-68.6%
same,AC50,[1],"20.6 µM [falling, partial curve]"
same,AC50,[2],"23.1 µM [falling, partial curve]"
CSc1ccccc1C(=O)OCC(=O)N1CCCC1=O,cell number change,,4.35%
same,AC50,[2],"3.26 µM [rising, partial curve]"
CCCCOc1cccc(C(=O)NC(=S)Nc2cccc(C(F)(F)F)c2)c1,cell number change,,25.1%
same,AC50,[1],"0.366 µM [falling, single point]"
same,AC50,[2],"13 µM [rising, partial curve]"
CC(C)Cn1c(=S)[nH]c2cc(C(=O)NCc3ccccc3F)ccc2c1=O,cell number change,,4.24%
same,AC50,[1],"0.13 µM [falling, full curve, poor fit]"
O=C(c1ccc(Cl)cc1)n1c(NCc2ccccc2)n[nH]c1=S,cell number change,,11%
same,AC50,[1],"4.11 µM [rising, partial curve, poor fit]"
Cc1ccc(CN2C(=O)N/C(=C/c3ccc(-c4ccc(C(=O)O)cc4)o3)C2=O)cc1,cell number change,,-24.2%
same,AC50,[1],"0.13 µM [falling, full curve, poor fit]"
same,AC50,[2],"0.259 µM [falling, full curve]"
O=C(CSc1ccc2c(c1)OCCO2)NCc1ccccc1,cell number change,,27.5%
same,AC50,[2],"0.259 µM [rising, full curve, poor fit]"
O=C(c1ccc(CS(=O)c2cccc(Cl)c2)o1)N1CCN(c2ccccn2)CC1 (centres undefined),AC50,[2],"14.6 µM [falling, partial curve]"
O=C(COc1nsnc1N1CCOCC1)Nc1ccc([N+](=O)[O-])cc1,cell number change,,2.86%
same,AC50,[2],"29.1 µM [rising, partial curve, poor fit]"
O=C(NCCO)C1(c2ccccc2)CCCC1,AC50,[2],"0.58 µM [falling, single point]"
O=C(Nc1cccc([N+](=O)[O-])c1)c1ccc2c(c1)OCCO2,AC50,[2],"6.51 µM [rising, partial curve, poor fit]"
COc1cccc(-c2ccc(-c3noc(-c4ccccc4F)n3)c(OC)n2)c1,AC50,[2],"0.58 µM [rising, single point]"
CSc1ccc(CN(C)C(C)C(=O)Nc2ccc(F)c(F)c2F)cc1 (centres undefined),cell number change,,118%
CCCN(CCC)CCCNC(=O)c1cc2c(=O)[nH]c3ccccc3c2s1,cell number change,,7.8%
same,AC50,[2],"29.1 µM [rising, partial curve, poor fit]"
COc1ccc(CCNC(=O)c2sc3nc4n(c(=O)c3c2C)CCC4)cc1,cell number change,,56.9%
same,AC50,[1],"2.06 µM [rising, full curve]"
same,AC50,[2],"5.8 µM [rising, partial curve]"
Cc1cc(C(=O)NCC2CCCO2)sc1C (centres undefined),cell number change,,0.283%
same,AC50,[2],"0.058 µM [rising, full curve, poor fit]"
CNC(=O)NC(=O)CN1C(=O)NC2(CCOc3ccccc32)C1=O (centres undefined),cell number change,,-41%
same,AC50,[1],"36.6 µM [falling, partial curve, poor fit]"
same,AC50,[2],"29.1 µM [rising, single point]"
Cc1ccc(-c2nc3c4ccccc4ccn3c2CN2CCCCC2)cc1,cell number change,,-6.32%
same,AC50,[2],"0.231 µM [falling, partial curve, poor fit]"
CCCc1nc(SCc2ccccn2)c2c(=O)n(C)c(=O)n(C)c2n1,cell number change,,21%
same,AC50,[2],"2.06 µM [rising, partial curve]"
O=C(COc1ccccc1)N(CCc1ccccc1)c1nc(-c2ccc(F)cc2)cs1,cell number change,,-27.1%
same,AC50,[2],"16.4 µM [falling, partial curve]"
CC1(C)C(C=C(Cl)Cl)C1C(=O)N1CCN(c2ccccc2)CC1 (centres undefined),AC50,[1],"5.17 µM [falling, single point]"
same,AC50,[2],"6.51 µM [falling, single point]"
CCOc1ccc(OCCC(=O)OCC(=O)N2CCN(S(=O)(=O)c3ccc(Cl)cc3)CC2)cc1,cell number change,,-38.2%
same,AC50,[1],"35.5 µM [falling, single point]"
same,AC50,[2],"22.4 µM [falling, partial curve]"
COc1cc(CN(C2CCCCC2)S(=O)(=O)c2ccc(S(=O)(=O)N(C)C3CCCCC3)cc2)cc(OC)c1OC,cell number change,,17%
same,AC50,[2],"29.1 µM [rising, single point]"
CCC1(c2ccc(F)cc2)NC(=O)N(CC(=O)NCc2ccc(C)cc2)C1=O (centres undefined),cell number change,,54.1%
same,AC50,[1],"29.1 µM [rising, single point]"
same,AC50,[2],"0.13 µM [falling, full curve, poor fit]"
O=C(C1CCN(Cc2nc(-c3ccc(Cl)cc3)no2)CC1)N1CCOCC1,cell number change,,5.73%
same,AC50,[1],"0.058 µM [falling, partial curve, poor fit]"
N/C(=N\OC(=O)CCn1cccc(C(F)(F)F)c1=O)c1ccc(Cl)cc1,cell number change,,34.8%
same,AC50,[1],"29.1 µM [rising, single point]"
CC(C)=NOc1cc(NC(=O)CCl)cc([N+](=O)[O-])c1,cell number change,,-16.5%
same,AC50,[2],"0.231 µM [falling, full curve, poor fit]"
COc1ccc(CN2CCCC(N3CCN(c4cccc(Cl)c4)CC3)C2)cc1OC (centres undefined),cell number change,,-10.2%
same,AC50,[2],"0.00461 µM [falling, full curve, poor fit]"
O=S(=O)(CCSc1nc2ccccc2o1)c1nc2ccccc2s1,cell number change,,-32.6%
same,AC50,[1],"29.1 µM [falling, single point]"
same,AC50,[2],"29.1 µM [falling, single point]"
COC(=O)CN1C(=O)C2(OCCCO2)c2cc(Br)ccc21,cell number change,,-8.14%
O=C(CCCCn1c(=O)c2ccccc2n(CC(=O)Nc2ccccc2)c1=O)NCc1ccco1,cell number change,,-25.8%
same,AC50,[2],"29.1 µM [falling, single point]"
CCN(CC)C(=O)C(=O)c1cccn1-c1ccc(C#N)cc1,cell number change,,-3.75%
same,AC50,[2],"4.11 µM [falling, single point]"
CSC(=NC#N)N1CCN(c2c(C)cccc2C)CC1,cell number change,,32.4%
same,AC50,[1],"29.1 µM [rising, single point]"
same,AC50,[2],"25.9 µM [rising, single point]"
CCCN(C(=O)CSCc1ccc(Cl)cc1)c1c(N)n(Cc2ccccc2)c(=O)[nH]c1=O,cell number change,,33.7%
same,AC50,[1],"29.1 µM [rising, single point]"
Cc1[nH]c2ccccc2c1-c1nc(-c2ccc(Cl)cc2)nnc1-c1ccccc1,cell number change,,16.9%
same,AC50,[1],"0.082 µM [rising, full curve, poor fit]"
same,AC50,[2],"0.116 µM [rising, full curve, poor fit]"
O=C(O)c1nn(-c2ccccc2)ccc1=O,cell number change,,17.5%
CCCCOC(=O)c1ccc(NC(=O)C(=O)NCc2ccncc2)cc1,cell number change,,-17.8%
same,AC50,[2],"23.1 µM [falling, single point]"
COc1ccc(S(=O)(=O)N2CCN(Cc3ccccc3)CC2)cc1,cell number change,,10.5%
same,AC50,[2],"0.411 µM [rising, partial curve, poor fit]"
COc1ccccc1/C=N/NC(=O)c1nnn(-c2nonc2N)c1CN(C)c1ccccc1,cell number change,,-1.91%
same,AC50,[1],"3.26 µM [falling, single point]"
same,AC50,[2],"23.1 µM [falling, single point]"
CC1CCCN(Cc2nc3c(c(=O)n(C)c(=O)n3C)n2CCCc2ccccc2)C1 (centres undefined),AC50,[1],"0.731 µM [rising, partial curve]"
CCCCC(=O)Nc1nc(C)c(-c2csc(Nc3cc(Cl)ccc3OC)n2)s1,AC50,[1],"3.66 µM [falling, partial curve, poor fit]"
CCc1ccc(NC(=O)Cn2c(=O)c3cccn3c3ccccc32)cc1,AC50,[2],"6.51 µM [falling, single point]"
[N-]=[N+]=CC(=O)C(c1ccccc1)(c1ccccc1)c1ccccc1,cell number change,,23.3%
O=C(CCCc1ccccc1)NCCCc1ccccc1,cell number change,,-10.3%
same,AC50,[2],"0.146 µM [falling, full curve, poor fit]"
Cc1ccc(CCN2CC(C(=O)NCCCOC(C)C)CC2=O)cc1 (centres undefined),cell number change,,40.2%
same,AC50,[1],"29.1 µM [rising, single point]"
same,AC50,[2],"6.51 µM [rising, partial curve]"
O=C(CN1C(=O)CSc2ccc(S(=O)(=O)N3CCCCC3)cc21)NCc1ccccc1,cell number change,,30.7%
same,AC50,[2],"29.1 µM [rising, single point]"
CC(=O)Nc1ccc(C2=CC(=O)C[C@H](c3ccc4c(c3)OCO4)C2)cc1,cell number change,,-26.8%
same,AC50,[2],"0.146 µM [rising, full curve, poor fit]"
O=C(N1CCOCC1)C12CC3CC(C1)CC(n1cnc(Cl)n1)(C3)C2,cell number change,,-4.94%
same,AC50,[2],"16.4 µM [falling, partial curve, poor fit]"
COc1ccc(-c2nc(-n3c(C)c(C(C)=O)c(C(C)=O)c3C)sc2C)cc1OC,AC50,[1],"0.651 µM [rising, full curve]"
same,AC50,[2],"16.4 µM [rising, partial curve]"
CC(NC(=O)CC1CCCCC1)c1ccccc1 (centres undefined),cell number change,,-3.97%
same,AC50,[2],"0.13 µM [rising, partial curve, poor fit]"
CC(=O)N/N=c1\sc2ccccc2n1C,cell number change,,-38.4%
COc1cc2c(cc1NC(=O)C(C)OC(=O)/C=C/c1ccc(OC(F)F)cc1)oc1ccccc12 (centres undefined),cell number change,,-4.55%
same,AC50,[2],"2.06 µM [rising, partial curve]"
CCCN1CCN(CCCNC(=O)c2ccc(NC(=O)C3=C(C)OCCS3)cc2)CC1,cell number change,,-27.7%
same,AC50,[2],"0.58 µM [rising, single point]"
O=C(CCNc1ccc(F)cc1)c1cccc([N+](=O)[O-])c1,cell number change,,-9.39%
same,AC50,[2],"14.6 µM [falling, partial curve]"
O=C1CCCN1c1ccc(Br)cc1,cell number change,,7.23%
CCOC(=O)CNS(=O)(=O)c1c(C)noc1C,cell number change,,-50.9%
same,AC50,[1],"5.8 µM [falling, full curve]"
same,AC50,[2],"14.6 µM [falling, partial curve]"
CC(=O)Nc1cccc(-c2nnc(SCC(=O)n3c4c(c5ccccc53)CCCC4)n2C)c1,cell number change,,26.4%
same,AC50,[2],"0.103 µM [rising, full curve, poor fit]"

# Another view of some results above.
compound	measurement	setting	value
O=C(CCNc1ccc(F)cc1)c1cccc([N+](=O)[O-])c1	cell number change		-9.39%
same	AC50	[2]	14.6 µM [falling, partial curve]
O=C1CCCN1c1ccc(Br)cc1	cell number change		7.23%

# A different layout for part of the listing above:
compound	measurement	setting	value
O=C(COc1nsnc1N1CCOCC1)Nc1ccc([N+](=O)[O-])cc1	AC50	[2]	29.1 µM [rising, partial curve, poor fit]
O=C(CCCCn1c(=O)c2ccccc2n(CC(=O)Nc2ccccc2)c1=O)NCc1ccco1	cell number change		-25.8%
COc1ccccc1/C=N/NC(=O)c1nnn(-c2nonc2N)c1CN(C)c1ccccc1	AC50	[1]	3.26 µM [falling, single point]
